Results: PubChem BioAssay AID2685 (National Center for Advancing Translational Sciences (NCATS), 2010)
The other results are listed elsewhere or left out. Shown are side measurements of this screen, not its main read-out; they come without a call. Compounds called inactive in the main read-out are mostly missing here. The note in brackets gives the kind of curve behind each potency; many fits are weak.

Assay: qHTS Assay for Lipid Storage Modulators in Drosophila S3 Cells;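 on cell number change: cells counted by Cell Tracker Red CMTPX staining in the red channel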
Conditions: BODIPY lipid droplet fluorescence, 18-24 h; for cell number change: measured here: cell count max response, cells fed with added oleic acid
In short: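 Drosophila S3 cells loaded with oleic acid (400 uM, as added) and compounds at several concentrations; lipid droplets imaged by 488-nm laser-scanning cytometry, 500–530 nm intensity and object ratio to cell channel. Percent activity normalized to 20 uM Triacsin C.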

[1] = measured here: cell number channel AC50, cells fed with added oleic acid
[2] = measured here: lipid fluorescence (Fed channel) AC50, cells fed with added oleic acid

Structure (SMILES) | cell number change [%] | AC50 [1] | AC50 [2]
Cc1cc(C)c(C)c(Oc2ncnc(N)c2[N+](=O)[O-])c1 | -2.33 | 7.31 µM [falling, partial curve] | 
COC(=O)[C@]1(Cc2ccccc2)N[C@H](c2ccc(-c3ccc4c(c3)OCO4)cc2)[C@@H]2C(=O)N(C)C(=O)[C@@H]21 | -20.5 | 0.58 µM [falling, full curve, poor fit] | 0.0326 µM [falling, full curve]
CCc1c(C)nc2c(-c3ccccc3)c[nH]n2c1=O | -9.94 |  | 29.1 µM [rising, single point]
COc1ccccc1C(C(=O)NCc1ccccc1)N(C(=O)c1csnn1)C1CC1 (centres undefined) | 22.5 |  | 
Cc1cc(C(=O)C(C)OC(=O)c2cnccn2)c(C)n1-c1ccccc1 (centres undefined) | -54.1 | 16.4 µM [falling, single point] | 29.1 µM [falling, single point]
COc1ccc(/C=C/C(=O)Nc2ccccc2C(=O)N2CCCC2)cc1 | 30.5 | 18.4 µM [rising, single point] | 18.4 µM [rising, single point]
COC(=O)CN(c1cc(OC)ccc1OC)S(=O)(=O)c1ccc(OC)c(OC)c1 | -13.7 |  | 6.51 µM [rising, single point]
COc1ccc(CN2C(=O)c3cccnc3C2=O)cc1S(=O)(=O)N(C)Cc1ccco1 | 26.3 |  | 
CCCCN(C)/C=N/c1c(C#N)cnn1-c1ccc(C)cc1 | -30 |  | 29.1 µM [falling, single point]
Nc1c(NCc2ccccc2)c(=O)c1=O |  | 1.84 µM [falling, partial curve] | 
Cc1ccc(-n2nc3c(=O)n(CC(=O)NCc4cccs4)nc(C)c3c2C)cc1 | -11.8 |  | 29.1 µM [falling, single point]
O=C(Nc1ccc(Cl)cc1)c1cc(S(=O)(=O)Nc2ccccn2)ccc1Cl | 12.5 |  | 
COc1ccc(N2CCN(C(=O)COC(=O)c3ccc(-n4nc(C)cc4C)cc3)CC2)cc1 | -3.88 |  | 2.06 µM [falling, partial curve]
Cc1ccc(/C=C/C(=O)c2ccc([N+](=O)[O-])o2)cc1 | -88.9 | 11.6 µM [falling, partial curve] | 
N/C(=N\OC(=O)c1cc(Cl)ccc1Cl)c1cccnc1 | 113 | 29.1 µM [rising, single point] | 
O=C(NNC(=S)NCc1ccccc1)c1ccc(Br)o1 | 15.6 |  | 
Cc1ccc(C(=O)N2CCCCCC2)cc1S(=O)(=O)Nc1ccccc1 | -11.3 |  | 32.6 µM [falling, single point]
Clc1ccc(OCCn2cnc3ccccc32)c(Cl)c1 | -19.8 |  | 29.1 µM [falling, single point]
CC(C)c1onc(C(=O)N2CCC(C(N)=O)CC2)c1[N+](=O)[O-] | 6.54 |  | 2.59 µM [falling, partial curve]
CCC(=O)NC(c1ccc(Cl)cc1Cl)c1ccc2cccnc2c1O (centres undefined) | -48.4 | 8.2 µM [falling, partial curve] | 29.1 µM [falling, single point]
CCCSc1nnc(CN2CCOCC2)n1C | -104 | 29.1 µM [falling, single point] | 29.1 µM [falling, single point]

Given in markdown: two of the compounds above.

| Structure (SMILES) | cell number change [%] | AC50 [1] | AC50 [2] |
| --- | --- | --- | --- |
| COC(=O)CN(c1cc(OC)ccc1OC)S(=O)(=O)c1ccc(OC)c(OC)c1 | -13.7 |  | 6.51 µM [rising, single point] |
| COc1ccc(CN2C(=O)c3cccnc3C2=O)cc1S(=O)(=O)N(C)Cc1ccco1 | 26.3 |  |  |

Single records, as listed above.
Cc1cc(C)c(C)c(Oc2ncnc(N)c2[N+](=O)[O-])c1 as listed: cell number change [%]: -2.33; AC50 [1]: 7.31 µM [falling, partial curve]
Clc1ccc(OCCn2cnc3ccccc32)c(Cl)c1 as listed: cell number change [%]: -19.8; AC50 [2]: 29.1 µM [falling, single point]

(next part)

Structure (SMILES) | cell number change [%] | AC50 [1] | AC50 [2]
CC1CCN(c2ccc3nnc(CCC(=O)N4CCCCC4)n3n2)CC1 | -11.1 |  | 29.1 µM [rising, single point]
CCCn1c(=N)n(CC(=O)c2ccc([N+](=O)[O-])cc2)c2ccccc21 | 30.5 |  | 
O=[N+]([O-])c1nn(-c2ccc3c(c2)OCCO3)n(O)c1=NC1CCCCCC1 | -61.2 | 18.4 µM [falling, partial curve] | 16.4 µM [falling, partial curve]
CCCCCCCC(=O)Nc1cc(C(=O)NCc2ccc(C)cc2)ccc1N1CCC2(CC1)CC(c1ccccc1)=NO2 | 30.2 | 10.3 µM [rising, partial curve, poor fit] | 
c1nc(NCC2(N3CCOCC3)CCCCC2)c2ccsc2n1 | -26.4 |  | 7.31 µM [falling, partial curve]
CC(=O)NC1C(c2nc3ccccc3s2)=C(c2ccccc2)C(=O)N1c1ccc(C)cc1 (centres undefined) |  | 0.58 µM [rising, full curve] | 
COc1ccc(N2CC(C(=O)Nc3ncccc3C)CC2=O)cc1 (centres undefined) | 7.53 |  | 0.103 µM [rising, single point]
N#Cc1ccc(OCC(=O)NCC2(N3CCCCC3)CCCCC2)cc1 | 47.9 |  | 
CCOc1ccc2ccccc2c1C(=O)NCC(c1ccc(N(C)C)cc1)N(C)C (centres undefined) | 15.3 |  | 18.4 µM [rising, partial curve]
CCN1C(=O)[C@@H]2[C@@H](c3ccc(-c4ccc(Cl)c(Cl)c4)c(OC)c3)N3CCCC[C@@]3(C(=O)OC)[C@@H]2C1=O | -15.4 |  | 9.2 µM [falling, partial curve]
O=C1CCc2ccc(NS(=O)(=O)c3ccc(F)cc3)cc2N1 | -15.7 |  | 5.8 µM [falling, full curve]
O=C(Nc1cccc(S(=O)(=O)N2CCOCC2)c1)C1CC(=O)N(c2ccc3c(c2)OCCO3)C1 (centres undefined) | -8.77 |  | 0.82 µM [falling, single point]
Cc1cccc(NC(=O)/C=C/c2ccc([N+](=O)[O-])s2)c1 |  |  | 11.6 µM [falling, partial curve]
O=C(CN1C(=O)NC2(CCCCCCC2)C1=O)N1CCOCC1 | 6.66 |  | 
COc1ccc(C2C(C#N)=C(N)N(c3ccccc3C#N)C3=C2C(=O)CCC3)cc1CN1CCCC1 (centres undefined) | 42.1 | 4.11 µM [rising, full curve, poor fit] | 0.82 µM [falling, single point]
Cn1cccc1C(C(=O)NC1CCCCC1)N(C(=O)Cc1cccs1)c1ccc2c(c1)OCO2 (centres undefined) | -32.9 | 32.6 µM [falling, single point] | 
COc1ccccc1NC(=O)CC1CCCC1 | 0.417 |  | 
CCCn1c2ccccc2c2cnn(CC(=O)N(CC)CC)c(=O)c21 | 6.38 |  | 
N=C1SCC(=O)N1c1ncc(Cc2ccc(F)cc2)s1 | -17.5 |  | 4.61 µM [falling, partial curve, poor fit]
COC(=O)c1ccc(N2CCS(=O)(=O)CC2)cc1 | 11.7 |  | 
CCCCn1c(N)c(N(CC(C)C)C(=O)CCNC(=O)c2ccc(Cl)cc2)c(=O)[nH]c1=O | 6 |  | 

Structure (SMILES) | cell number change [%] | AC50 [1] | AC50 [2]
CCOc1cc2[nH]c(=O)n(CC3CCC(C(=O)NCCCOC)CC3)c(=O)c2cc1OCC (centres undefined) | 17.8 |  | 0.00651 µM [falling, full curve, poor fit]
COc1ccccc1OCCNC1CCCC1 | 11.5 |  | 
CCOC(=O)N1CCN(C(=O)COc2ccc(S(=O)(=O)NCC(C)C)cc2C)CC1 | 35.4 | 32.6 µM [rising, single point] | 
CCOc1ccc(N(CC)C(=O)CCNC(=O)Cn2ccc3ccccc3c2=O)cc1 | -7.92 |  | 6.51 µM [falling, single point]
Cn1c2ccccc2c2c(C(=O)O)cn(C3CCCC3)c(=O)c21 | 37.7 | 29.1 µM [rising, single point] | 5.8 µM [falling, single point]
Cc1ccc(C)c(NC(=O)C2CCN(C(=O)c3cccs3)CC2)c1 | 19.8 |  | 6.51 µM [rising, single point]
Cc1ccc(NC(=O)C/C(N)=N/OC(=O)Nc2cccc(C)c2)cc1 | 8.46 |  | 0.651 µM [rising, full curve, poor fit]
COc1ccc(CSc2nnc(-c3ccncc3)n2C)cc1F | 22.5 |  | 
NC(=O)CSc1nc2cccnc2n1-c1ccc(F)cc1 | -12.1 |  | 
COc1cc(C(=O)OCC(=O)NC2CCCC2)cc(NC(=O)c2ccco2)c1OC | -8.31 | 0.13 µM [falling, full curve, poor fit] | 
CN(C)C(=O)c1nc2ccc(Cl)cn2c1CN1CCN(c2ncccn2)CC1 | 4.3 |  | 9.2 µM [rising, partial curve, poor fit]
Cc1ccccc1OCC(=O)Nc1sc(C(=O)Nc2cccc(C)c2C)c(C)c1C#N | 8.89 |  | 16.4 µM [rising, single point]
N#Cc1nc(-c2ccc(F)cc2)oc1NCc1cccc2c1OCO2 | 1.99 |  | 
CCOC(=O)C1(Cc2ccc(OC)cc2)CCN(C(=O)CN2CCCCC2=O)CC1 | 5.1 |  | 0.164 µM [rising, full curve, poor fit]
O=C(Nc1sc2c(c1-c1nc3ccccc3[nH]1)CCCC2)C1CCCC1 | -1.85 |  | 29.1 µM [rising, single point]
Cc1[nH]c(C)c(S(=O)(=O)N2CCN(c3cccc(C(F)(F)F)c3)CC2)c1C(=O)N1CCCCC1 | -11.2 |  | 
CC(=O)N1c2ccccc2NC2=C(C(=O)CCC2)C1c1ccco1 (centres undefined) |  |  | 0.231 µM [falling, full curve, poor fit]
Cc1ccc(S(=O)(=O)N(C)c2ccc(OC(C)C(=O)N3CCCC3)cc2)cc1C (centres undefined) | 22.6 |  | 29.1 µM [rising, single point]
COc1ccccc1-n1c2nc3ccccc3nc2c2c(=O)n(-c3cc(C)cc(C)c3)cnc21 | -1.69 |  | 1.46 µM [rising, full curve, poor fit]
Cc1ccc(CN(Cc2ccco2)C(=O)c2ccco2)cc1 | 141 | 29.1 µM [rising, single point] | 29.1 µM [falling, single point]
O=C(CN1C(=O)/C(=C/c2ccco2)SC1=S)Nc1ccc(C(=O)O)c(O)c1 |  |  | 25.9 µM [falling, single point]
